The other results are listed elsewhere or left out.

By UniProt entry, the sequences of proteins in these tests, tags left out. Where a name states a change or a piece, a line headed by the entry shows the natural chain unless it says otherwise.
UniProt P50579: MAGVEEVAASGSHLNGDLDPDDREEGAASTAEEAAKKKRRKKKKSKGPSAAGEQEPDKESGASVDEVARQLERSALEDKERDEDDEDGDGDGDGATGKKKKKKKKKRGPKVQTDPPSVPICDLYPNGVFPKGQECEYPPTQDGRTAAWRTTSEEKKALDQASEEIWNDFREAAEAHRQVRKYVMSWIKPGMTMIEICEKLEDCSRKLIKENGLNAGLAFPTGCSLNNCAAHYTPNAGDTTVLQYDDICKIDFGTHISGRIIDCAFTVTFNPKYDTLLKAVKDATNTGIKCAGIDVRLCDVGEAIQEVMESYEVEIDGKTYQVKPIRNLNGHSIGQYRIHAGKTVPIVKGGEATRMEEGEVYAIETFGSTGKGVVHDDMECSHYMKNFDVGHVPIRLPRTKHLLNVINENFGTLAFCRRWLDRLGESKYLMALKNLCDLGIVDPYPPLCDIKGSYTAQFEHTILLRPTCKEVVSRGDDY
UniProt Q9NR56: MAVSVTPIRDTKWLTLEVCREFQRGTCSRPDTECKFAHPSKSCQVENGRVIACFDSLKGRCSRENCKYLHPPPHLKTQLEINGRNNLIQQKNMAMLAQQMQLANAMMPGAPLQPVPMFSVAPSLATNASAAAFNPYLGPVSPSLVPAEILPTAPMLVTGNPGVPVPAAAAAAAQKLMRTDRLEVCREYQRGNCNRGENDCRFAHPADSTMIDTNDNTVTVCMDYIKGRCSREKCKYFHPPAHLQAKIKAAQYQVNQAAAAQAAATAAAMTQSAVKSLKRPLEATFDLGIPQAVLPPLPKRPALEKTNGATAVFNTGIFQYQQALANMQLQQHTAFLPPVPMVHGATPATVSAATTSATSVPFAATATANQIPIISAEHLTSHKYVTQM
UniProt O95983: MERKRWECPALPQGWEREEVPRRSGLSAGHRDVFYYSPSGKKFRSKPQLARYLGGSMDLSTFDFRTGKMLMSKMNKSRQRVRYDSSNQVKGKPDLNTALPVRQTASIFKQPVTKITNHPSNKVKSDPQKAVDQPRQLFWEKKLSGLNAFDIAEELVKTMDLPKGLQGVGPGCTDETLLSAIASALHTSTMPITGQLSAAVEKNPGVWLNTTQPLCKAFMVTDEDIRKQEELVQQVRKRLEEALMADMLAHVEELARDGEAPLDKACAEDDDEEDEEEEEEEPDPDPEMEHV
UniProt O75448: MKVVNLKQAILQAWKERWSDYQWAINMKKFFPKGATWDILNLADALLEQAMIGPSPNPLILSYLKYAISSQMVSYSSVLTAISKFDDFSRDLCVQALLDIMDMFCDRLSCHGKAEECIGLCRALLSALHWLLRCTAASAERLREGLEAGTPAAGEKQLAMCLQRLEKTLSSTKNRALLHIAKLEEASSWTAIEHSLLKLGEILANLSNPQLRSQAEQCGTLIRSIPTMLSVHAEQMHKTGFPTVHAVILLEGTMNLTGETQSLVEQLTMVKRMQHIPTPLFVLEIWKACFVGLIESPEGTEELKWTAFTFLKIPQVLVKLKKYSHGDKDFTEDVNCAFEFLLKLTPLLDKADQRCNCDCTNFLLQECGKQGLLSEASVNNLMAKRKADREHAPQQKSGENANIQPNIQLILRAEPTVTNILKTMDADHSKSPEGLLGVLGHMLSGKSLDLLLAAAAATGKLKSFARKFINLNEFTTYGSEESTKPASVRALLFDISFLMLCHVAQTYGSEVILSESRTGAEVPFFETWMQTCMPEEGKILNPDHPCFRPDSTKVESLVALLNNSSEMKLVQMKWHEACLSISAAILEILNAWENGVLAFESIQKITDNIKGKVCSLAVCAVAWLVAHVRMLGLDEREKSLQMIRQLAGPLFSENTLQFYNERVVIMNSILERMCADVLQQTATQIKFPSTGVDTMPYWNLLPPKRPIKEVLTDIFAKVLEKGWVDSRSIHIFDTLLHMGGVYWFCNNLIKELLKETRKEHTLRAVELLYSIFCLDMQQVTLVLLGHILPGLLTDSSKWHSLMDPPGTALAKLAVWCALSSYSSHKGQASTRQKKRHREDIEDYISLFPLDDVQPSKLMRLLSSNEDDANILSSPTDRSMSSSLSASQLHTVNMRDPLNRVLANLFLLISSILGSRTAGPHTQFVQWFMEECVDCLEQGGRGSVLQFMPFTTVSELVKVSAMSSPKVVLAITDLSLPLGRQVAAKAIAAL
UniProt Q14814: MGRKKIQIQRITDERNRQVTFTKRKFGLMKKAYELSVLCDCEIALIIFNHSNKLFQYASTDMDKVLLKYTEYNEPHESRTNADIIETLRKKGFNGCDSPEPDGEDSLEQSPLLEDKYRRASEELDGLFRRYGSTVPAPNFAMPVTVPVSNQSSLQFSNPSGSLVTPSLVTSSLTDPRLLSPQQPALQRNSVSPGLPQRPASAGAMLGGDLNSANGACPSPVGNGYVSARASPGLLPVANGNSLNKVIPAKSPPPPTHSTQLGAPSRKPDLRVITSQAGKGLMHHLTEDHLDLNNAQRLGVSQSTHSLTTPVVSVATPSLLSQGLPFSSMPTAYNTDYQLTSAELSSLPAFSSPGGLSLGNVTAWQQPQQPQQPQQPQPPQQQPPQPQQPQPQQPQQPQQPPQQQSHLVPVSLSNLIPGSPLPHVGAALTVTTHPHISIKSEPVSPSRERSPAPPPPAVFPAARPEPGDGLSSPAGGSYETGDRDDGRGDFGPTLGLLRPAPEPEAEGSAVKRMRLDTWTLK
UniProt Q8N6Q8: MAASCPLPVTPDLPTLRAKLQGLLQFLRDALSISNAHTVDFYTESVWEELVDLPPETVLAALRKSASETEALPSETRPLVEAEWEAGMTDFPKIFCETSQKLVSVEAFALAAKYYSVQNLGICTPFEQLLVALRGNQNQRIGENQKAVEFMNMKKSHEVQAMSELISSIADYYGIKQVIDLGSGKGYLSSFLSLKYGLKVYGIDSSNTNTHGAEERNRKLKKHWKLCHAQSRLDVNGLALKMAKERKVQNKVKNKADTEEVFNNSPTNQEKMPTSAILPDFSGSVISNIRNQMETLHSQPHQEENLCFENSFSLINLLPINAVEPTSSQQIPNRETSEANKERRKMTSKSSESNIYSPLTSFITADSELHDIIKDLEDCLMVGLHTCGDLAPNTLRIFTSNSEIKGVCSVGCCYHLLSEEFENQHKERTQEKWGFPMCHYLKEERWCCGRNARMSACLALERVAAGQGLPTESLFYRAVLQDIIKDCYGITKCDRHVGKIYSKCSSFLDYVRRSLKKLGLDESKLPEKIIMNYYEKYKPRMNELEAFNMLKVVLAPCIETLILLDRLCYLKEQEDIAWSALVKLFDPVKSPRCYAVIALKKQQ
UniProt Q9BTT4: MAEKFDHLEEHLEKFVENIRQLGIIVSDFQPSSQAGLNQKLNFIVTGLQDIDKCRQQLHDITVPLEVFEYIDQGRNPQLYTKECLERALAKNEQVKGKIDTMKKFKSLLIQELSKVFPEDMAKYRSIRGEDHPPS
UniProt P33992: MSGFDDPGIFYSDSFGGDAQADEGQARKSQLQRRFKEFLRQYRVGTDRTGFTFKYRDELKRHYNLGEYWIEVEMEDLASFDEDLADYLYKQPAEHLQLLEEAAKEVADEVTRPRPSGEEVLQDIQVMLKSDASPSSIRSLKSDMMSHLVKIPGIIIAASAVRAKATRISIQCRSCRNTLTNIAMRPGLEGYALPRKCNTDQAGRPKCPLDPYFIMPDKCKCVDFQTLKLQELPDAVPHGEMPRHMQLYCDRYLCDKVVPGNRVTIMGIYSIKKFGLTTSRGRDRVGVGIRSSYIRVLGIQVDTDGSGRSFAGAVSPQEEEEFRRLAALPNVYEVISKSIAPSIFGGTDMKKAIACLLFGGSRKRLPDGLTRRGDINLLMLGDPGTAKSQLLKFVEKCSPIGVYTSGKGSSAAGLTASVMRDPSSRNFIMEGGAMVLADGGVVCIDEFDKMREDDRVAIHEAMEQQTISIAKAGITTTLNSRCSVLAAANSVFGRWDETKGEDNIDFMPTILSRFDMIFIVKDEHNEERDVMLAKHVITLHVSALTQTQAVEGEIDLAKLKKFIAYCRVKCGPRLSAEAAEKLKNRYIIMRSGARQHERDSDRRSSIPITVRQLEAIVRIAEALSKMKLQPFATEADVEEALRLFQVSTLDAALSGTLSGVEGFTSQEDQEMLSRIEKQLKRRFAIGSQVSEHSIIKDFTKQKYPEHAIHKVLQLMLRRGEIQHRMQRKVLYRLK
UniProt Q9NRN9: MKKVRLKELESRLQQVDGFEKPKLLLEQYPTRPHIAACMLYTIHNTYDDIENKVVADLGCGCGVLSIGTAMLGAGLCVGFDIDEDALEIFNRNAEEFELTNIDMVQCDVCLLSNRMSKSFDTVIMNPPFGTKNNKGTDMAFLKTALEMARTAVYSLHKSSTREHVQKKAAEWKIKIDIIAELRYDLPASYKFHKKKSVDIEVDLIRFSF
UniProt Q6ZNC8: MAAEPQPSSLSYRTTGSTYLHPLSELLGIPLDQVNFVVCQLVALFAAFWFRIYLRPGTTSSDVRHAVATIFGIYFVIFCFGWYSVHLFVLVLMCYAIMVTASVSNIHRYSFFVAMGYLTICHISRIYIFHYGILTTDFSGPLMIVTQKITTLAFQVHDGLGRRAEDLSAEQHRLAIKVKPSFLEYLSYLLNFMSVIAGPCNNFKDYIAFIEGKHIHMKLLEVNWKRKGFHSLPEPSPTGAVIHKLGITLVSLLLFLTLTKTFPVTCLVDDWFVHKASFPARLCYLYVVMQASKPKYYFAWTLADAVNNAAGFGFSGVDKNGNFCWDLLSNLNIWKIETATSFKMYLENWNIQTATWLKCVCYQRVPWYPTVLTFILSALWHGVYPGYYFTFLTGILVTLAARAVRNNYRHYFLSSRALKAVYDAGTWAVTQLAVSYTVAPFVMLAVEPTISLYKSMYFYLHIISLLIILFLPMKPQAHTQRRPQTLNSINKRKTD
UniProt Q06413, whole entry, looked up: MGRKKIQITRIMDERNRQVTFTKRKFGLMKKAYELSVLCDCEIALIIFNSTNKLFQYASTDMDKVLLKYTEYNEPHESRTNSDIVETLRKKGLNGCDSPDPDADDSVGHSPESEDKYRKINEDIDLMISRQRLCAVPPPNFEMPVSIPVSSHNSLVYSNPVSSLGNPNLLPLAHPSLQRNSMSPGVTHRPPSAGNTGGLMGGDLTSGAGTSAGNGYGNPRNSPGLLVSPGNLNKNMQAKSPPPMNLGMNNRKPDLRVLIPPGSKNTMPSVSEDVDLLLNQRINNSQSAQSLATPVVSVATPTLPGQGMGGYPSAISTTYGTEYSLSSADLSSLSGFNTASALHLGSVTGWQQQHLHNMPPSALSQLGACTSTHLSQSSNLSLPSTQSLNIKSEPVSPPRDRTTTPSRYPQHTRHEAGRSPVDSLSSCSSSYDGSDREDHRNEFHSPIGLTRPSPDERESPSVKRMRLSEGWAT
UniProt Q8WXB1: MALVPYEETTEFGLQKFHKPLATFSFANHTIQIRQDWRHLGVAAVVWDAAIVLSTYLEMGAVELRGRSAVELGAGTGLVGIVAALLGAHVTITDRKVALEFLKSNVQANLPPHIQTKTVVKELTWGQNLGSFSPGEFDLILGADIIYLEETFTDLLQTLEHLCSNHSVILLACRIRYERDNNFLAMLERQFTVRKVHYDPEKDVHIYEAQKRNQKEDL
UniProt P25205: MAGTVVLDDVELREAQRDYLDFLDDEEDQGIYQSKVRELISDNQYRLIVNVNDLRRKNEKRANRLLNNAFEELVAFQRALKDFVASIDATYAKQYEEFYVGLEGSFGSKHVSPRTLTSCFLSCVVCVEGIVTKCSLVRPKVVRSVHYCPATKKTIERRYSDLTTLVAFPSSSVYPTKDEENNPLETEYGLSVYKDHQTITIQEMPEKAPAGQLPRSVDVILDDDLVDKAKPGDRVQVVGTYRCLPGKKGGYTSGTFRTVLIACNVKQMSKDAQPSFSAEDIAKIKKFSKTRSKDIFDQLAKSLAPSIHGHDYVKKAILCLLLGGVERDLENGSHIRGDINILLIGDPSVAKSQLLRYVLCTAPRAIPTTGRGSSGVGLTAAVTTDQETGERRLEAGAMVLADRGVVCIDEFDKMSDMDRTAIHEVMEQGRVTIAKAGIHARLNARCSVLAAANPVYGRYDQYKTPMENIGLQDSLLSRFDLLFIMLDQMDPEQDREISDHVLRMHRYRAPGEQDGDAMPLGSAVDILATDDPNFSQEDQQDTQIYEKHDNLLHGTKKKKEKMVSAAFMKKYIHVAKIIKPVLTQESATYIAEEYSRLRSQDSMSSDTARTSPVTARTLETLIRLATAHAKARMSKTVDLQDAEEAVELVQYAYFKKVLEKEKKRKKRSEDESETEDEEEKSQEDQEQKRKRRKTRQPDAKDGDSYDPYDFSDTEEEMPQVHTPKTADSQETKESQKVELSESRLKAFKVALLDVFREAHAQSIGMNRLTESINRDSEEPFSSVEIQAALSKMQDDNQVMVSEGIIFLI
UniProt Q96HR3: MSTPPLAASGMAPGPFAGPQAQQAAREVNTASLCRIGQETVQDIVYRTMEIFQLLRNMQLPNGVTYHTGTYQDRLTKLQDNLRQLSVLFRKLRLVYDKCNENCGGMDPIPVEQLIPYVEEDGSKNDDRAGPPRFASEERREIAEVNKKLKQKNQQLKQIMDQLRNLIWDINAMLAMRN

Compound in one assay: Cc1cccc(CC(=O)N2CCc3c2ccc(-c2cn(C)c4ncnc(N)c24)c3F)n1
The experiment in a line: log2 fold change, soluble protein after heating vs DMSO (PISA); higher = thermal stabilisation; K562 cells, 10 uM, 30 min; active = over 0.2 and 3.5 SD of the protein, either way, in both replicates (recomputed). An outline of the steps:
(§1)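 Thermal stability values are relative to control samples and come from duplicates. They are expressed as log2 fold changes. For measurement, K562 cells (2×10^6 cells/mL) received 10 μM compound for 30 min, and aliquots were heated for 3 min over 48°C-58°C, pooled, and extracted at 4°C in PBS with 0.5% NP-40. Soluble protein, the supernatant after 21,000xg for 90 min, was quantified by TMTpro 16plex LC-MS/MS with equalised channel sums.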
In the case of METAP1 (UniProt P53582), the log2 fold change was inactive: -0.038.

Turning to MGST3 (UniProt O14880), the log2 fold change was inactive: -0.002. Still for that read-out and setting: the result for METAP2 (UniProt P50579) reads inactive: 0.004. Still for that read-out and setting: the result for MCRIP2 (UniProt Q9BUT9) reads inactive: 0.016; that for MBNL1 (UniProt Q9NR56), inactive: -0.011; that for MEAF6 isoform 3 (UniProt Q9HAF1), inactive: -0.035. For the target MBD3 (UniProt O95983), the log2 fold change is inactive: -0.019. On the same count and under the same terms, the result for MED15 (UniProt Q96RN5) reads inactive: 0.092; that for MED24 (UniProt O75448), inactive: 0.167. Still for that read-out and setting: then MEF2D (UniProt Q14814), with inactive: -0.012; and METTL25 (UniProt Q8N6Q8), with inactive: -0.075. As to MED10 (UniProt Q9BTT4), the log2 fold change was inactive: 0.013.

Compound in another assay: Cc1cn(-c2cc(NC(=O)c3ccc(C)c(Nc4nccc(-c5cccnc5)n4)c3)cc(C(F)(F)F)c2)cn1 [nilotinib]
Described as above. An outline of the steps:
as §1
In the case of MCM2 (UniProt P49736), the log2 fold change is inactive: -0.057.

On to MESD (UniProt Q14696), for which the log2 fold change was inactive: -0.041.

As for MCRIP1 (UniProt I3L4Q0), the log2 fold change is inactive: -0.049.

Turning to MDN1 (UniProt Q9NU22), the log2 fold change was inactive: -0.15. As for MED23 (UniProt Q9ULK4), the log2 fold change was inactive: 0.083. In the case of METTL7A (UniProt Q9H8H3), the log2 fold change was inactive: 0.012. The same measure, in the same setting: the result for MCM5 (UniProt P33992) reads inactive: -0.019; that for METTL5 (UniProt Q9NRN9), inactive: -0.008. The same measure, in the same setting: the result for MECR (UniProt Q9BV79) reads inactive: 0.004. On the same count and under the same terms, then MBOAT1 (UniProt Q6ZNC8), with inactive: 0.064.

In the case of MEF2C isoform 5 (UniProt Q06413), the log2 fold change was inactive: 0.221.

For MAT2B (UniProt Q9NZL9), the log2 fold change was inactive: 0.007.

For METTL21A (UniProt Q8WXB1), the log2 fold change is inactive: 0.002.

As for MERTK (UniProt Q12866), the log2 fold change is inactive: -0.021.

Regarding MCM3 isoform 2 (UniProt P25205), the log2 fold change was inactive: -0.029.

MCCC2 (UniProt Q9HCC0): the log2 fold change is inactive: 0.035. MED30 (UniProt Q96HR3): the log2 fold change was inactive: -0.002. Same read-out and setting: then MED18 (UniProt Q9BUE0), with inactive: -0.006. On the same count and under the same terms, the result for MFAP1 (UniProt P55081) reads inactive: 0.075; that for MCCC1 (UniProt Q96RQ3), inactive: 0.035.

For MGAT4B isoform 3 (UniProt Q9UQ53), the log2 fold change was inactive: -0.11. On to MED14 (UniProt O60244), for which the log2 fold change was inactive: 0.125. With MFSD10 (UniProt Q14728), the log2 fold change was inactive: 0.046. For the target METAP1 (UniProt P53582), the log2 fold change is inactive: -0.046. On to MGST3 (UniProt O14880), for which the log2 fold change was inactive: 0.01. The same measure, in the same setting: the result for METAP2 (UniProt P50579) reads inactive: -0.006; that for MBNL1 (UniProt Q9NR56), inactive: -0.004. As for MEAF6 isoform 3 (UniProt Q9HAF1), the log2 fold change is inactive: 0.077. Same read-out and setting: then MFSD14B (UniProt Q5SR56), with inactive: 0.009; and MBD3 (UniProt O95983), with inactive: -0.059; and MED15 (UniProt Q96RN5), with inactive: 0.032.

For the target MED24 (UniProt O75448), the log2 fold change is inactive: 0.046. The same measure, in the same setting: the result for MEF2D (UniProt Q14814) reads inactive: 0.016. In the case of METTL25 (UniProt Q8N6Q8), the log2 fold change was inactive: -0.162. With MED10 (UniProt Q9BTT4), the log2 fold change was inactive: 0.136.

Values taken from the supplement of paper PMC10849652.
